Source: patent US5583142A, “Analgesic and nootropic drugs” (priority 1992, dated 1996)

Assays:
[1] = assay type: in vivo; details: mouse hot plate
Method: (§1) The analgesic action was detected in mouse, rat, guinea pig and dog. The mouse was subjected to hot plate and writhing tests; the rat to tail-flick and paw-pressure tests; the guinea pig to paw-pressure test only; the dog to the test described by Vainio et al. [J. Vet. Pharmacol. Ther., 12, 225-231 (1989)] using an electric stimulation. Consequently, the claimed compounds were tested with pain being induced by stimuli of different nature: thermal (hot plate and tail flick), chemical (writhing by acetic acid), mechanical (paw pressure) and electrical (cutaneous stimulation).
Potency, efficacy and toxicity of SM21, PG9 and SM32 in comparison with
four principal reference analgesic drugs tested in mouse. As analgesic

[2] = mouse acetic acid writhing test; assay type: in vivo; details: 8 mg/kg s.c.
Method: as §1
The claimed molecules, chosen as examples, were also assayed in mice by the writhing test (Table 4). The test is meant to evaluate the products capability to prevent mice writhes ensuing abdominal pains caused by i.p. injection of a 0.6% aqueous solution of acetic acid.
Acetic acid solution = 0.6% v/v.

rat paw-pressure test = assay type: in vivo
Method: as §1
(§2) As already mentioned, the claimed products were assayed also in rat by the paw-pressure and tail-flick tests.
(§3) Both tests were carried out with the max. doses not impairing the rats normal behaviour. In fact, no difference in behaviour appeared on observation, to the extent that researchers, who were unaware of the treatment received by the animals, were unable to distinguish among the various groups. The painful stimulus utilized in the paw-pressure test involved the animal consciousness to a much greater extent than the stimulus used in the tail-flick test, in fact, the type and anatomic localization of the latter mainly involved a spinal response.
(§4) Both tests on rats were carried out with the max. doses not altering the behaviour of the treated animals. […]

rat tail-flick test = assay type: in vivo
Method: as §1, §2, §3, §4

[3] = mouse, in vivo
Method: In FIGS. 7 and 7 bis vertical lines give s.e. mean. Each column represents the mean of 6-10 mice. SM-21 maleate, PG-9 maleate, SM-32 oxalate, cocaine HCl, amphetamine sulphate and caffeine were administered 15 min before test.

CN1CC[C@]23c4c5ccc(O)c4O[C@H]2[C@@H](O)C=C[C@H]3[C@H]1C5.Cl [Morphine HCl]
analgesic efficacy / degree of analgesia compared with claimed compounds [1]: lower than that of SM-21, PG-9, and SM-32 | percent inhibition [2]: 74.8% | activity in paw-pressure test, in words (rat paw-pressure test): most active compound | activity in tail-flick test, in words (rat tail-flick test): most active compound | motor activity and curiosity (exploration activity) [3]: remarkably increase the motor activity
